In article PMC8463877:
Results are given in words; binding and its absence hold for the method and conditions named. Some results given as binding are weak or reduced against the parent protein; the word gives no strength.

Target: αB-crystallin wild type (unlabeled) (UniProt P02511)
Assay: native MS; samples at 20 μM electrosprayed, modified quadrupole-TOF; spectra fit with UniDec, oligomer mass list of 5 to 50 subunits; both purified

binding: binds
B1: αB-crystallin wild type (unlabeled) (protein, UniProt P02511 1-175)
chain: MDIAIHHPWIRRPFFPFHSPSRLFDQFFGEHLLESDLFPTSTSLSPFYLRPPSFLRAPSWFDTGLSEMRLEKDRFSVNLDVKHFSPEELKVKVLGDVIEVHGKHEERQDEHGFISREFHRKYRIPADVDPLTITSSLSSDGVLTVNGPRKQVSGPERTIPITREEKPAVTAAPKK
